# PubChem BioAssay AID264 (DTP/NCI, 2004)
# The list shows only some results of the screen, not a fair sample: it gathers some chemical classes. Not every dose and run of a compound is shown. T/C is the treated group as % of the vehicle group. Schedules are NCI's codes, taken here to give the interval after Q, in days (D) or hours (H), and the number of doses after X. Some T/C values are marked as having no survivor count here; that says nothing about deaths at the dose.
# Tested on: nude mice, LX-1 lung xenograft intrarenal, tumor weight T/C
# Test: NCI In Vivo Anticancer Drug Screen. Data for tumor model Human Lung LX-1 Xenograft (intrarenal inoculation) in NU/NU Swiss (nude) mice
# Conditions: T/C endpoint: mean tumor weight change, evaluated on day 11, higher T/C = larger tumour
# Method: The antitumor activity of compounds was measured in mice bearing transplantable tumors. Survival or tumor size were measured and the results are expressed as the measurement made in the treated group (T) divided by the measurement made in the vehicle treated control group (C). The tumor model used in this assay is Human Lung LX-1 Xenograft (intrarenal inoculation) in NU/NU Swiss (nude) mice
# [1] = dose: 0.12 mg/kg/injection, schedule: Q01DX010 (sc), vehicle: Klucel (hydroxypropylcellulose) (HPC)
# [2] = dose: 0.25 mg/kg/injection, schedule: Q01DX010 (sc), vehicle: Klucel (hydroxypropylcellulose) (HPC)
# [3] = dose: 0.5 mg/kg/injection, schedule: Q01DX010 (sc), vehicle: Klucel (hydroxypropylcellulose) (HPC)
# [4] = dose: 1.0 mg/kg/injection, schedule: Q01DX010 (sc), vehicle: Klucel (hydroxypropylcellulose) (HPC)
structure (smiles),measurement,setting,value
CC1=C[C@H]2O[C@@H]3C[C@H]4OC(=O)/C=C\C=C\C(C(C)O)OCC(O)C(C)CC(=O)OC[C@@]2(C[C@@H]1O)[C@]4(C)[C@@]31CO1 (some centres not stated),T/C,[1],135 % of control [survivor count not shown]
same,T/C,[2],77 % of control [survivor count not shown]
same,T/C,[3],71 % of control [survivor count not shown]
same,T/C,[4],53 % of control [survivor count not shown]
CC(=O)OC[C@]12CC(=O)C(C)=C[C@H]1O[C@@H]1C(=O)[C@@H](OC(C)=O)[C@@]2(C)[C@@]12CO2,T/C,"dose: 2.0 mg/kg/injection, schedule: Q04DX003 (sc), vehicle: water",139 % of control [survivor count not shown]
same,T/C,"dose: 4.0 mg/kg/injection, schedule: Q04DX003 (sc), vehicle: water",155 % of control [survivor count not shown]
same,T/C,"dose: 8.0 mg/kg/injection, schedule: Q04DX003 (sc), vehicle: water",172 % of control [survivor count not shown]
C=C(C)C(=O)OCC12CCC(C)=CC1OC1C(=O)C(OC(=O)C(=C)C)C2(C)C12CO2 (configuration not stated),T/C,"dose: 4.0 mg/kg/injection, schedule: Q04DX003 (sc), vehicle: saline with Tween-80",136 % of control [survivor count not shown]
CC1=CC2OC3CC4OC(=O)/C=C/C=C/C(C(C)O)OCC/C(C)=C/C(=O)OCC2(CC1)C4(C)C31CO1 (configuration not stated),T/C,"dose: 25.0 mg/kg/injection, schedule: Q04DX003 (sc), vehicle: saline with Tween-80",118 % of control [survivor count not shown]
C[C@@H](O)[C@H]1/C=C/C=C\C(=O)O[C@@H]2C[C@H]3O[C@@H]4[C@@H]5OC5(C)CCC4(COC(=O)[C@H]4O[C@]4(C)[C@@H](O)CO1)[C@]2(C)[C@]31CO1 (some centres not stated),T/C,"dose: 2.5 mg/kg/injection, schedule: Q01DX010 (sc), vehicle: saline + alcohol",113 % of control [survivor count not shown]
same,T/C,"dose: 5.0 mg/kg/injection, schedule: Q01DX010 (sc), vehicle: saline + alcohol",84 % of control [survivor count not shown]
same,T/C,"dose: 10.0 mg/kg/injection, schedule: Q01DX010 (sc), vehicle: saline + alcohol",48 % of control [survivor count not shown]
same,T/C,"dose: 20.0 mg/kg/injection, schedule: Q01DX010 (sc), vehicle: saline + alcohol",65 % of control [survivor count not shown]
CC1=C[C@H]2O[C@@H]3[C@H](O)[C@@H](O)[C@](C)([C@@]2(CO)CC1)[C@@]31CO1,T/C,"dose: 2.0 mg/kg/injection, schedule: Q01DX010 (sc), vehicle: saline",70 % of control [survivor count not shown]
CC1=CC2OC3CC4OC(=O)/C=C/C=C/C(C(C)O)OCC(O)C(C)CC(=O)OCC2(CC1O)C4(C)C31CO1 (configuration not stated),T/C,[1],125 % of control [survivor count not shown]
same,T/C,[2],75 % of control [survivor count not shown]
same,T/C,[3],106 % of control [survivor count not shown]
same,T/C,[4],104 % of control [survivor count not shown]
CC(=O)OC[C@]12C[C@H](OC(=O)CC(C)C)C(C)=C[C@H]1O[C@@H]1[C@H](O)[C@@H](O)[C@@]2(C)[C@@]12CO2,T/C,"dose: 1.0 mg/kg/injection, schedule: Q04DX003 (sc), vehicle: saline",96 % of control [survivor count not shown]
same,T/C,"dose: 2.0 mg/kg/injection, schedule: Q04DX003 (sc), vehicle: saline",113 % of control [survivor count not shown]
same,T/C,"dose: 4.0 mg/kg/injection, schedule: Q04DX003 (sc), vehicle: saline",153 % of control [survivor count not shown]
CC(=O)OCC12CCC(C)=CC1OC1C(O)C(OC(C)=O)C2(C)C12CO2 (configuration not stated),T/C,"dose: 0.5 mg/kg/injection, schedule: Q01DX010 (sc), vehicle: saline",80 % of control [survivor count not shown]
